Assay results: PubChem BioAssay AID504467 (National Center for Advancing Translational Sciences (NCATS), 2011)
Hit rate of the full screen: of about 330,000 compounds, about 7,700 (2.3%) were called active. The shares of active, inactive and inconclusive entries below differ from those in the screen. The call rests on the fitted dose curve; in most records, active means well fitted inhibition curve with a large enough effect; inconclusive means small, poorly fitted or top-dose-only effect, or effect the other way; inactive means flat fitted curve, though single readings scatter. A potency beside an inconclusive call is a rough fit, not a confirmed value.

Assay: qHTS screen for small molecules that inhibit ELG1-dependent DNA repair in human embryonic kidney (HEK293T) cells expressing luciferase-tagged ELG1; further: nearly all actives have a fitted effect of over 55% in size
Conditions: HEK293T ELG1-luciferase reporter, luminescence, 16 h, DNA damage induced by 5-fluorouridine; activity change, negative = inhibition: at 46.1 µM (top of the series)
Method in brief: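 DMSO vehicle served as the neutral condition. Each well held 2,000 cells given 5-fluorouridine plus compound; after 16 hr at 37 °C/5% CO2, ONE-Glo was added and luciferase measured 30 min later.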
On the % scale 0 is the no-effect control and ±100 the full control effect; potency means the concentration at half of the fitted maximal effect.

Compound	Potency	activity change, negative = inhibition
O=C(NCC(c1ccco1)N1CCN(c2ccccc2F)CC1)c1ccc2c(c1)OCO2 (stereo unspecified)	active: 13 µM	
Cc1nn(-c2nc3ccccc3s2)c(C)c1Oc1ccccc1O	inconclusive: 4.61 µM [activator, full curve]	
CCCCNc1nc(N)nc(-c2cc(Cl)ccc2O)n1	inconclusive: 2.06 µM [activator, full curve]	
Cn1c(SCC(=O)Nc2cccc(Br)c2)nnc1-c1cc2ccccc2o1	inconclusive: 20.6 µM [activator, single point]	
CCOc1ccccc1N(CC(=O)Nc1ccc(S(=O)(=O)N2CCOCC2)cc1)S(=O)(=O)c1ccccc1	inconclusive: 2.59 µM [inhibitor, partial curve, poor fit]	
Cc1nc(NC(=O)COC(=O)C2CC2C)c(Cl)cc1Cl (stereo unspecified)	inconclusive: 20.6 µM [activator, single point]	
CCCCCCC(C)NC(=S)Nc1cc(S(=O)(=O)N(C)C)ccc1C (stereo unspecified)		inactive: -22.2%
CCCC(=O)NCCc1nc2ccccc2n1CCC		inactive: 2.97%
CCOC(=O)c1cnc(-n2nc(C)cc2C)nc1NC		inactive: -9.66%
O=C(c1ccc(COc2c(F)c(F)cc(F)c2F)o1)N1CCN(c2ccccc2)CC1	inconclusive: 29.1 µM [inhibitor, single point]	
Cc1ccc(NC(=O)C(NCc2ccccn2)c2ccccc2)cc1 (stereo unspecified)	inconclusive: 29.1 µM [activator, single point]	
C/C(=N\NC(=S)NC(C)C)c1ccccc1OC(F)F		inactive: -8.17%
COc1cc(/C=N/NS(=O)(=O)c2ccc3ccccc3c2)ccc1OCc1ccc(C(=O)O)cc1	inconclusive: 0.92 µM [activator, partial curve, poor fit]	
CCc1nnc(NC(=O)c2cccc(S(=O)(=O)N3CCN(c4ccccc4)CC3)c2)s1	inconclusive: 16.4 µM [inhibitor, partial curve, poor fit]	
COc1ccc(-c2csc3ncnc(N4CCN(c5ccccc5[N+](=O)[O-])CC4)c23)cc1	active: 5.17 µM	
Cc1sc2ncnc(-n3cnc4ccccc43)c2c1C	inconclusive: 16.4 µM [inhibitor, partial curve]	
O=S1(=O)N=C(N2CCN(Cc3ccc4c(c3)OCO4)CC2)c2ccccc21	inconclusive: 18.4 µM [inhibitor, partial curve, poor fit]	
O=C(NNC(=O)C1CCC1)c1ccccc1	inconclusive: 14.6 µM [activator, partial curve, poor fit]	
N#Cc1c(-c2ccccc2)cc(-c2ccc3c(c2)OCO3)[nH]c1=O		inactive: -3.75%
Fc1cccc(NC(=S)NCCc2ccccc2)c1		inactive: 17.9%
COC(=O)c1cn(NC(=O)c2cccc(F)c2)c(=O)c2ccccc12		inactive: -2.02%
CSCCC(NC(=O)C1CCC(C)CC1)C(=O)OCC(=O)c1ccc(Cl)cc1 (stereo unspecified)		inactive: 7.44%
Cc1cccc(/C=N\NC(=O)c2ccc(Cl)cc2)c1O	inconclusive: 11.6 µM [activator, partial curve]	
COc1ccc(NC(=O)Nc2ccccc2OC)cc1	inconclusive: 11.6 µM [activator, partial curve]	

Compound	Potency	activity change, negative = inhibition
Cc1nn(-c2ccccc2)c(C)c1C(=O)OCC(=O)N(C)c1ccccc1	inconclusive: 16.4 µM [inhibitor, single point]	
CCO[C@@H]1OC(C(=O)NCc2ccccc2)=C[C@H](c2ccc(C(F)(F)F)cc2)[C@H]1CCCO	inconclusive: 23.1 µM [inhibitor, single point]	
CCOC(=O)C1=C(C)NC2=C(C(=O)OC2)C1c1ccccc1 (stereo unspecified)	inconclusive: 10.3 µM [inhibitor, partial curve, poor fit]	
COc1cccc(NC(=S)NNC(=O)CCn2cc([N+](=O)[O-])cn2)c1		inactive: 3.79%
O=c1oc(CCCO)cc2ccc(C#Cc3cccnc3)cc12	inconclusive: 3.66 µM [activator, full curve]	
CCOc1cccc(-c2c(C(=O)N/N=C/c3c(F)cccc3Cl)nnn2-c2nonc2N)c1	inconclusive: 29.1 µM [inhibitor, single point]	
CCn1c(-c2nn(C)c(C)c2Cl)n[nH]c1=S	inconclusive: 16.4 µM [activator, partial curve, poor fit]	
O=S(=O)(NCCN1CCOCC1)c1ccc2ccccc2c1		inactive: 0%
CNC(=O)c1ccc(-c2cc3onc(-c4ccccc4)c3c(=O)n2C)cc1	inconclusive: 3.66 µM [activator, partial curve]	
N#Cc1nc(COc2ccccc2)oc1NCCCn1ccnc1	inconclusive: 18.4 µM [activator, partial curve]	
COc1ccc(Cn2c3nc4ccccc4nc3c3c(=O)n(Cc4ccco4)cnc32)cc1	inconclusive: 23.1 µM [inhibitor, single point]	
CCN(C(=O)COC(=O)c1cc2c(s1)CCCCC2)C1CCS(=O)(=O)C1 (stereo unspecified)		inactive: -18%
CC(C)(C)c1ccc(S(=O)(=O)N2CCNC(=O)C2)cc1	inconclusive: 32.6 µM [activator, partial curve, poor fit]	
CC(=O)Nc1ccc(NC(=O)C(C)OC(=O)C2CCN(S(=O)(=O)c3ccc4c(c3)OCCO4)CC2)cc1 (stereo unspecified)		inactive: 4.88%
O=C(N[C@@H](Cc1ccc(O)cc1)C(=O)O)c1ccc(C(F)(F)F)cc1	inconclusive: 8.2 µM [activator, partial curve, poor fit]	
CCOc1ccc(NC(=O)C2CCCN(S(=O)(=O)c3ccc4c(c3)CCCN4C(C)=O)C2)cc1 (stereo unspecified)	inconclusive: 23.1 µM [inhibitor, partial curve]	
O=C(CSc1nnc(-c2cccs2)n1-c1ccccc1)NCc1ccc2c(c1)OCO2	inconclusive: 10.3 µM [inhibitor, single point]	
COc1ccc(-c2onc(C)c2-c2ccc(C(=O)OC(C)C)o2)c(O)c1	active: 23.1 µM	
CCCCNC(=O)Nc1nc2ccc(CC)cc2s1	inconclusive: 23.1 µM [activator, partial curve]	
COc1cc(C(=O)Nc2cc(C(F)(F)F)ccc2-n2cncn2)cc(OC)c1OC	inconclusive: 13 µM [inhibitor, partial curve, poor fit]	
COc1ccc(S(=O)(=O)N2CCCCC2)cc1NC(=O)COC(=O)c1ccco1	inconclusive: 11.6 µM [inhibitor, single point]	
CCC(C)NCCCCOc1ccc(Cl)cc1C (stereo unspecified)		inactive: 10.8%
COc1ccccc1N(CC(=O)NC1CCCC1)S(=O)(=O)c1ccc(C)cc1		inactive: -18.2%
O=C(/C(=C(\O)c1ccccc1)c1nc2ccccc2[nH]1)c1ccccc1		inactive: -20.3%

Reformatted bar-delimited: entries from further up.
Compound | Potency | activity change, negative = inhibition
CCN(C(=O)COC(=O)c1cc2c(s1)CCCCC2)C1CCS(=O)(=O)C1 (stereo unspecified) |  | inactive: -18%
CC(C)(C)c1ccc(S(=O)(=O)N2CCNC(=O)C2)cc1 | inconclusive: 32.6 µM [activator, partial curve, poor fit] | 
CC(=O)Nc1ccc(NC(=O)C(C)OC(=O)C2CCN(S(=O)(=O)c3ccc4c(c3)OCCO4)CC2)cc1 (stereo unspecified) |  | inactive: 4.88%
O=C(N[C@@H](Cc1ccc(O)cc1)C(=O)O)c1ccc(C(F)(F)F)cc1 | inconclusive: 8.2 µM [activator, partial curve, poor fit] | 

Further entries:

Compound	Potency	activity change, negative = inhibition
CCc1ccc(-c2nc(CN3CCC(C(=O)NCCN(CC)c4ccccc4)CC3)c(C)o2)cc1	active: 20.6 µM	
Cc1c(Cl)cccc1NC(=O)COC(=O)c1c2c(nc3ccccc13)CCN(Cc1ccccc1)C2	active: 13 µM	
Oc1ccccc1-c1nc(NCC2CCCO2)c2ccccc2n1 (stereo unspecified)	active: 23.1 µM	
Cc1cc(C)c2cc(C)c(SCC(=O)NCc3ccco3)nc2c1	inconclusive: 23.1 µM [inhibitor, partial curve, poor fit]	
COC(=O)C(c1ccccc1)N(Cc1cccc(CN(C(C(=O)OC)c2ccccc2)S(C)(=O)=O)c1)S(C)(=O)=O (stereo unspecified)		inactive: -14.2%
CC(=O)Nc1ccc(/C(C)=N/Nc2nc(Nc3cccc4ccccc34)nc(N3CCOCC3)n2)cc1	active: 7.31 µM	
CCc1ccccc1S(=O)(=O)Cc1ccc(C(=O)N2CCN(c3ccccc3OC)CC2)o1	active: 23.1 µM	
CCN1CCN(c2ccc(NC(=O)c3ccc(Cl)c(N4CCCC4=O)c3)cc2)CC1		inactive: 19.1%
CC(=O)Nc1ccc(NC(=O)CN2C(=O)COc3ccc(S(=O)(=O)N4CCCCC4)cc32)cc1		inconclusive: 52.6% [activator]
Nc1nc(CSC(=S)N2CCN(c3ccccc3)CC2)nc(Nc2ccccc2)n1	inconclusive: 29.1 µM [inhibitor, single point]	
O=C(CSc1ccccc1)Nc1nnc(/C=C/c2ccccc2)s1	inconclusive: 18.4 µM [activator, partial curve, poor fit]	
CC(=O)c1c[nH]c(C(=O)NCC2CCCO2)c1 (stereo unspecified)		inactive: 1.22%
Nn1c(SCc2ccc(F)cc2)nnc1-c1ccccn1	inconclusive: 23.1 µM [activator, partial curve]	
COc1ccccc1N1CCN(/N=C/c2ccc(C(=O)O)cc2)CC1	inconclusive: 2.59 µM [activator, partial curve]	
CCOC(=O)c1ccc(NC(=O)Cn2cccc2)cc1	inconclusive: 18.4 µM [activator, partial curve, poor fit]	
O=c1c2sccc2nc(SCc2cc(=O)n3cc(Br)ccc3n2)n1Cc1ccccn1	inconclusive: 16.4 µM [activator, partial curve]	
Cc1ccccc1/C=C/C12NC(=O)CN1c1ccccc1C2(C)C (stereo unspecified)	inconclusive: 29.1 µM [activator, single point]	
COc1ccc(Cl)cc1NC(=O)NC1CCCCC1		inactive: -14%
CCN1CCN(Cc2ccc(NC(=O)c3ccc(C)c(NC(=O)c4ccc5n[nH]nc5c4)c3)cc2C(F)(F)F)CC1		inactive: -2.46%
CCC[C@H]1COCCS(=O)(=O)N1Cc1ccccc1	inconclusive: 0.146 µM [activator, partial curve, poor fit]	
O=C(N/N=C/c1ccco1)c1[nH]ncc1Br	inconclusive: 16.4 µM [activator, single point]	
Cc1cc(=O)n2[nH]c(-c3ccco3)nc2n1		inactive: 2.63%
COc1ccc(-c2sc3ccc(N4CCOCC4)cc3c2C#CC(C)(C)O)cc1		inactive: -13.6%
